# No constants are given. Whether binding was seen depends on the method and setting. In cells and extracts the contact can be indirect. Some binding calls cover weakened binding; strength is not graded here.
# Protein sequences, listed by entry. Tags and fused reporters are not part of them. Residues count along the entry.
# UniProt Q8N163: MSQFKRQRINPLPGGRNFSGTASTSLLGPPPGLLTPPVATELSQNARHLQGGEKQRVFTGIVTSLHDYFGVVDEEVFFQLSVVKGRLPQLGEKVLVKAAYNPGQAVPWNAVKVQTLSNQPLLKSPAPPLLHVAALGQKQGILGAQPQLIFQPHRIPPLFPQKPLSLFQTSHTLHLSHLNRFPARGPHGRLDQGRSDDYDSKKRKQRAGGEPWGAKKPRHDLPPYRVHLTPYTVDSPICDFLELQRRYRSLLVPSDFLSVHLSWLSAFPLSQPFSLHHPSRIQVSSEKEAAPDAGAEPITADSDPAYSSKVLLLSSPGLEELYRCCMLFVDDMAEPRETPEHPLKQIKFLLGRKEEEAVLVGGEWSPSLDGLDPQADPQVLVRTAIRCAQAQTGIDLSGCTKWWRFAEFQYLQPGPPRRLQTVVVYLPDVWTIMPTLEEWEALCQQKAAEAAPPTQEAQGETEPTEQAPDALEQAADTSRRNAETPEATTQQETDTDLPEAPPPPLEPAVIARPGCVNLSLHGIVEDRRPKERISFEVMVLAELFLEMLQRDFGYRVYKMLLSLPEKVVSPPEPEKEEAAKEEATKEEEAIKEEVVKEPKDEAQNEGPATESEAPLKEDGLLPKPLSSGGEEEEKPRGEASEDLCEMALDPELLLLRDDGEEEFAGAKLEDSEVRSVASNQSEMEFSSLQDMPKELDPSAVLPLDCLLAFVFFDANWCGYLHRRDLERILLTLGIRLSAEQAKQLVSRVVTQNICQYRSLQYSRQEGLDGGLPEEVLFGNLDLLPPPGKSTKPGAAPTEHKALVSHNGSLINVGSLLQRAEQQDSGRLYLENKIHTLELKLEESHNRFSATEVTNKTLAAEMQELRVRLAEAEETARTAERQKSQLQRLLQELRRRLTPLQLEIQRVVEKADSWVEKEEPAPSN
# UniProt O15392: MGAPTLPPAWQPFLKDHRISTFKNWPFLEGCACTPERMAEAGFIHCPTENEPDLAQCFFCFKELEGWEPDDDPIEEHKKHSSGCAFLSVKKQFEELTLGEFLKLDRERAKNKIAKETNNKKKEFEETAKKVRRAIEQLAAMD
# UniProt P10809, residues 27-573: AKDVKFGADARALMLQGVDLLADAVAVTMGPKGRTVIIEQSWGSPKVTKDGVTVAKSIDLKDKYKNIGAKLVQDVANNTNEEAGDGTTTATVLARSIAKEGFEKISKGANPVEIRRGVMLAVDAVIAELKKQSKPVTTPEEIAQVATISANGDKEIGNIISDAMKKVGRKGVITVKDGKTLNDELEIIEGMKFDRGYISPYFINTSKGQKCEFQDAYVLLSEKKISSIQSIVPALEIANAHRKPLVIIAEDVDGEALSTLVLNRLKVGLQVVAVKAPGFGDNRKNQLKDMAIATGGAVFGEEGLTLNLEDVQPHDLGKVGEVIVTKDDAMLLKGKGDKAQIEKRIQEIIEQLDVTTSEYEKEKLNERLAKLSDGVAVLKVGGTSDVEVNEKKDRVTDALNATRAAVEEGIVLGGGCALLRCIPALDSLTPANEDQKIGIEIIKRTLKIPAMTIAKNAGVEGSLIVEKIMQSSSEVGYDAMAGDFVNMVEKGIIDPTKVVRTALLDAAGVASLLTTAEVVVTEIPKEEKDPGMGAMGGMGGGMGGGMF
# Tests used:
# [1] = biological target: Cell cycle and apoptosis regulator 2 (CCAR2) (human (endogenous in SH-SY5Y and HEK293)) (UniProt Q8N163); assay: co-IP; cytosolic fraction isolated from HEK293 cells, anti-CCAR2 or anti-survivin antibody, western blotting
# [2] = biological target: Cell cycle and apoptosis regulator 2 (CCAR2) (human (endogenous in SH-SY5Y and HEK293)) (UniProt Q8N163); assay: co-IP; mitochondrial fraction isolated from HEK293 cells, anti-CCAR2 or anti-survivin antibody, western blotting
# [3] = biological target: Cell cycle and apoptosis regulator 2 (CCAR2) (human (endogenous in SH-SY5Y and HEK293)) (UniProt Q8N163); assay: co-IP; whole cell lysates of SH-SY5Y cells in NETN lysis buffer (100 mM NaCl, 0.5% Nonidet P-40), anti-CCAR2 or anti-survivin antibody with Protein A sepharose, western blotting; also in cells transfected with universal or Hsp60 siRNA
Substance,binding [1],binding [2],binding [3]
survivin (from UniProt O15392 1-142),no binding (condition: in the cytosolic fraction),binds,binds
Heat shock protein 60 (Hsp60) (from UniProt P10809-1 27-573),–,–,binds
